The text below walks through data of patent publication US11065203B2, “Liposomal compositions and uses of same” (Technion Research & Development Foundation Limited, priority 2009, dated 2021).

The data set in a line: Proteomics analysis (trypsin digest, LC-MS/MS) of hMSC ghosts and derived CDLs, conditioned or unconditioned by PC3 medium. To be noted: LC-MS/MS peak area per protein. On the set-up: species or system human.

B1: P52272 (protein, UniProt P52272 1-730, looked up)
chain: MAAGVEAAAEVAATEIKMEEESGAPGVPSGNGAPGPKGEGERPAQNEKRKEKNIKRGGNRFEPYANPTKRYRAFITNIPFDVKWQSLKDLVKEKVGEVTYVELLMDAEGKSRGCAVVEFKMEESMKKAAEVLNKHSLSGRPLKVKEDPDGEHARRAMQKVMATTGGMGMGPGGPGMITIPPSILNNPNIPNEIIHALQAGRLGSTVFVANLDYKVGWKKLKEVFSMAGVVVRADILEDKDGKSRGIGTVTFEQSIEAVQAISMFNGQLLFDRPMHVKMDERALPKGDFFPPERPQQLPHGLGGIGMGLGPGGQPIDANHLNKGIGMGNIGPAGMGMEGIGFGINKMGGMEGPFGGGMENMGRFGSGMNMGRINEILSNALKRGEIIAKQGGGGGGGSVPGIERMGPGIDRLGGAGMERMGAGLGHGMDRVGSEIERMGLVMDRMGSVERMGSGIERMGPLGLDHMASSIERMGQTMERIGSGVERMGAGMGFGLERMAAPIDRVGQTIERMGSGVERMGPAIERMGLSMERMVPAGMGAGLERMGPVMDRMATGLERMGANNLERMGLERMGANSLERMGLERMGANSLERMGPAMGPALGAGIERMGLAMGGGGGASFDRAIEMERGNFGGSFAGSFGGAGGHAPGVARKACQIFVRNLPFDFTWKMLKDKFNECGHVLYADIKMENGKSKGCGVVKFESPEVAERACRMMNGMKLSGREIDVRIDRNA
modifications: full-length
For the molecule B1, for the setting “CDLs derived from conditioned hMSCs versus conditioned ghosts”, the “Ratio of expression Cond. CDLs/Cond. Ghosts” value was determined as 2%. Moreover, the “Ratio of expression Cond Ghosts/Ghosts” value (hMSC ghosts conditioned by PC3 medium versus unconditioned ghosts) turned out to be 262%.
